Laboratory results: paper PMC6156844

Biological target: HIV-1 integrase (abstract P7) (HIV-1)
Test: assembly of multiprotein complexes; multiprotein complexes assembled in vitro and/or in cellulo around the integrase protein and DNA

B1: TNPO3 (protein, UniProt Q9Y5L0 1-923)
chain: MEGAKPTLQLVYQAVQALYHDPDPSGKERASFWLGELQRSVHAWEISDQLLQIRQDVESCYFAAQTMKMKIQTSFYELPTDSHASLRDSLLTHIQNLKDLSPVIVTQLALAIADLALQMPSWKGCVQTLVEKYSNDVTSLPFLLEILTVLPEEVHSRSLRIGANRRTEIIEDLAFYSSTVVSLLMTCVEKAGTDEKMLMKVFRCLGSWFNLGVLDSNFMANNKLLALLFEVLQQDKTSSNLHEAASDCVCSALYAIENVETNLPLAMQLFQGVLTLETAYHMAVAREDLDKVLNYCRIFTELCETFLEKIVCTPGQGLGDLRTLELLLICAGHPQYEVVEISFNFWYRLGEHLYKTNDEVIHGIFKAYIQRLLHALARHCQLEPDHEGVPEETDDFGEFRMRVSDLVKDLIFLIGSMECFAQLYSTLKEGNPPWEVTEAVLFIMAAIAKSVDPENNPTLVEVLEGVVRLPETVHTAVRYTSIELVGEMSEVVDRNPQFLDPVLGYLMKGLCEKPLASAAAKAIHNICSVCRDHMAQHFNGLLEIARSLDSFLLSPEAAVGLLKGTALVLARLPLDKITECLSELCSVQVMALKKLLSQEPSNGISSDPTVFLDRLAVIFRHTNPIVENGQTHPCQKVIQEIWPVLSETLNKHRADNRIVERCCRCLRFAVRCVGKGSAALLQPLVTQMVNVYHVHQHSCFLYLGSILVDEYGMEEGCRQGLLDMLQALCIPTFQLLEQQNGLQNHPDTVDDLFRLATRFIQRSPVTLLRSQVVIPILQWAIASTTLDHRDANCSVMRFLRDLIHTGVANDHEEDFELRKELIGQVMNQLGQQLVSQLLHTCCFCLPPYTLPDVAEVLWEIMQVDRPTFCRWLENSLKGLPKETTVGAVTVTHKQLTDFHKQVTSAEECKQVCWALRDFTRLFR
Which binding does the source give for B1 here?
The binding was “binds”.

These are yes or no findings as the source states them, for the method shown. Binding calls can cover weak binding; strength is not graded here.
